The target in assay [1] is T1, Med19-VC (Drosophila) (UniProt Q9VVL6).
T1 sequence: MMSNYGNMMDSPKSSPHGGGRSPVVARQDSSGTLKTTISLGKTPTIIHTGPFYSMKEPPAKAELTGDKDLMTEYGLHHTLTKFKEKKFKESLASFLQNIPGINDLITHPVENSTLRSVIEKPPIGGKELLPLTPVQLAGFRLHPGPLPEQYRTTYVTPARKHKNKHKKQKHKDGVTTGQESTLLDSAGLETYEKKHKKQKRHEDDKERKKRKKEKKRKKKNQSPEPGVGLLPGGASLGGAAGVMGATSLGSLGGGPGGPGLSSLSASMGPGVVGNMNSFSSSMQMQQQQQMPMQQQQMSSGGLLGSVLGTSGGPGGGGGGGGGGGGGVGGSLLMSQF
Kind of assay: split reporter.

Assay [2] concerns the target T2, GST-Med19 ΔBS1-BS2 mutant (Drosophila) (UniProt Q9VVL6).
T2 sequence: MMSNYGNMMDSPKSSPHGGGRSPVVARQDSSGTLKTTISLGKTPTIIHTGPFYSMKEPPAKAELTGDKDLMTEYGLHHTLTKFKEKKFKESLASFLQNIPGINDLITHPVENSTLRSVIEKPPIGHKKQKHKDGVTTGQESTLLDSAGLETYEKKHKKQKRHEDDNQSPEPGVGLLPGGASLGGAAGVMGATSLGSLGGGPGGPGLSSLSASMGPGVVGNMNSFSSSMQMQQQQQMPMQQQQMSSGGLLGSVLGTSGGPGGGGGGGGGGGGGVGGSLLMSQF
Kind of assay: pull-down.

These are yes or no findings as the source states them, for the method shown. In cells and extracts the contact can be indirect. Some binding calls cover weakened binding; strength is not graded here. For some assays here: Tags and fused reporters may be left off the sequences shown.

In the case of VN-Pnr (from UniProt P52168 1-540), the binding entry in assay [1] is given as “binds”.
Regarding “Pnr 1-291 HA tagged form (from UniProt P52168 1-291) (domain or fragment)”, the binding entry in assay [2] is recorded as “no binding”.

These data come from paper doi:10.1101/2020.04.03.023895.
